# Test results: PubChem BioAssay AID200 (DTP/NCI, 2004)
# The list is a part of this screen's results and no random one: it is rich in T/C values a quarter to a half above the control, in often repeated tests (any T/C) and in doses without a T/C. Other doses and runs of a compound stand elsewhere. T/C gives the treated animals as a percentage of the vehicle group. Some doses have a count of surviving animals in place of a T/C: the source files T/C as zero there, which appears to mark a toxic dose or a test without result, not a measured value. Some doses without a T/C left all or most animals alive at the check, yet need not have been tolerated: survival well below the control is almost never listed, so the zero probably covers shortened survival too. Survivors were counted at the toxicity check, usually on the fifth day, unless a day is given; later deaths do not show. Schedules are NCI's codes, read here as Q, the interval in days (D) or hours (H), X, the number of doses. Some doses were run more than once; the values are given in rising order. For survival time, this PubChem deposit counts one and a half times the control or more as active, and values a quarter to a half above the control carry no call in these data; other NCI protocols may use other cut-offs. Some T/C values are followed by the survivors on the day toxicity was checked, most often the fifth; where none is given, no animal had died by that day.
# System: B6C3F1 mice, B16 melanoma ip, median survival T/C
# Experiment: NCI In Vivo Anticancer Drug Screen. Data for tumor model B16 Melanoma (intraperitoneal) in B6C3F1 mice
# Conditions: T/C endpoint: median survival time, schedule: Q01DX009 (ip), higher T/C = longer survival
# In short: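 Values are T/C ratios: the measurement in treated animals divided by that in vehicle-treated controls, using survival or tumor size in mice carrying transplantable tumors.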
# [1] = dose: 2.0 mg/kg/injection, vehicle: Klucel (hydroxypropylcellulose) (HPC)
# [2] = dose: 4.0 mg/kg/injection, vehicle: Klucel (hydroxypropylcellulose) (HPC)
# [3] = dose: 200.0 mg/kg/injection, vehicle: saline
# [4] = dose: 1.0 mg/kg/injection, vehicle: saline
# [5] = dose: 2.0 mg/kg/injection, vehicle: saline
# [6] = dose: 4.0 mg/kg/injection, vehicle: saline
# [7] = dose: 8.0 mg/kg/injection, vehicle: saline
# [8] = dose: 3.0 mg/kg/injection, vehicle: Klucel (hydroxypropylcellulose) (HPC)
smiles,measurement,setting,value
C=C1C(O)C2(O)OCC34C(CC5C(C)=CC(=O)C(O)C5(C)C23)OC(=O)C(OC(=O)C/C=C/CCCCCCCC)C14 (stereo unspecified),survivor count,"dose: 26.67 mg/kg/injection, vehicle: saline + Tween-80 + alcohol",5 of 10
same,survivor count,"dose: 32.0 mg/kg/injection, vehicle: saline + alcohol",4 of 10
same,survivor count,"dose: 44.44 mg/kg/injection, vehicle: saline + Tween-80 + alcohol",0 of 10
same,survivor count,"dose: 64.0 mg/kg/injection, vehicle: saline + alcohol",0 of 10
COC1=C(C)C(=O)C2=C(C1=O)C1C3CC4=C(C(=O)C(OC)=C(C)C4=O)C(CNC(=O)C(C)=O)N3C(C#N)C(C2)N1C (stereo unspecified),survivor count,[1],5 of 10 and 10 of 10
same,survivor count,[2],0 of 10
CCOC(=O)C1=C(C#N)C2(CCC(OCc3ccccc3)CC2)C(=O)O1 (stereo unspecified),survivor count,[3],9 of 10
same,survivor count,"dose: 400.0 mg/kg/injection, vehicle: saline",4 of 10
same,survivor count,"dose: 400.0 mg/kg/injection, vehicle: suspension in saline",9 of 10
Cc1cc2c(c3oc(C4(C)OC4C4OC4C)cc(=O)c13)C(=O)c1c(O)c(C3CC(C)(N(C)C)C(O)C(C)O3)cc(C3CC(N(C)C)C(O)C(C)O3)c1C2=O (stereo unspecified),T/C,"dose: 1.0 micrograms/kg/injection, vehicle: Klucel (hydroxypropylcellulose) (HPC)",128 and 130 % of control
same,T/C,"dose: 2.0 micrograms/kg/injection, vehicle: Klucel (hydroxypropylcellulose) (HPC)",145 % of control [9 of 10 alive]
same,T/C,"dose: 4.0 micrograms/kg/injection, vehicle: Klucel (hydroxypropylcellulose) (HPC)",125 % of control
same,survivor count,"dose: 8.0 micrograms/kg/injection, vehicle: Klucel (hydroxypropylcellulose) (HPC)",6 of 10 and 10 of 10
same,survivor count,"dose: 20.0 micrograms/kg/injection, vehicle: saline",10 of 10
same,survivor count,"dose: 40.0 micrograms/kg/injection, vehicle: saline",10 of 10
same,survivor count,"dose: 80.0 micrograms/kg/injection, vehicle: saline",9 of 10
same,survivor count,"dose: 160.0 micrograms/kg/injection, vehicle: saline",6 of 10
same,survivor count,"dose: 320.0 micrograms/kg/injection, vehicle: saline",0 of 10
O=CNCC(=O)O,survivor count,[3],10 of 10
Nc1ncn(C2CC(O)C(CO)O2)c(=O)n1 (stereo unspecified),survivor count,"dose: 0.5 mg/kg/injection, vehicle: Klucel (hydroxypropylcellulose) (HPC)",10 of 10
same,survivor count,"dose: 0.5 mg/kg/injection, vehicle: saline",10 of 10
same,survivor count,"dose: 1.0 mg/kg/injection, vehicle: Klucel (hydroxypropylcellulose) (HPC)",10 of 10
same,survivor count,[4],10 of 10
same,survivor count,[1],7 of 10
same,survivor count,[5],10 of 10
same,survivor count,[2],7 of 10
same,survivor count,[6],8 of 10
same,survivor count,"dose: 8.0 mg/kg/injection, vehicle: Klucel (hydroxypropylcellulose) (HPC)",9 of 10
same,survivor count,[7],9 of 10
same,survivor count,"dose: 500.0 micrograms/kg/injection, vehicle: Klucel (hydroxypropylcellulose) (HPC)",8 of 10
CC(C)NC(=O)N(CCCCBr)N=O,T/C,"dose: 25.0 mg/kg/injection, vehicle: Klucel (hydroxypropylcellulose) (HPC)",125 % of control
same,T/C,"dose: 50.0 mg/kg/injection, vehicle: Klucel (hydroxypropylcellulose) (HPC)",138 % of control
same,survivor count,"dose: 100.0 mg/kg/injection, vehicle: Klucel (hydroxypropylcellulose) (HPC)",10 of 10
same,survivor count,"dose: 200.0 mg/kg/injection, vehicle: Klucel (hydroxypropylcellulose) (HPC)",10 of 10
Cc1c(N)nc(C(CC(N)=O)NCC(N)C(N)=O)nc1C(=O)NC(C(=O)NC(C)C(O)CC(=O)NC(C(=O)NC(OC1OC(C)C(N)C(O)C1O)C(O)c1nc(-c2nc(C(=O)NCCCC(N)CC(=O)NCCCNCCCCN)cs2)cs1)C(C)O)C(OC1OC(CO)C(O)C(O)C1OC1OC(CO)C(O)C(OC(N)=O)C1O)c1cnc[nH]1 (stereo unspecified),T/C,[4],128 % of control
same,T/C,[5],125 % of control
same,T/C,[6],144 % of control
same,T/C,[7],137 % of control
CC(=O)CC(c1ccccc1)c1c(O)c2ccccc2oc1=O (stereo unspecified),T/C,"dose: 0.1 mg/kg/injection, vehicle: saline with Tween-80",125 % of control
same,survivor count,"dose: 0.4 mg/kg/injection, vehicle: saline with Tween-80",10 of 10
same,survivor count,"dose: 0.8 mg/kg/injection, vehicle: saline with Tween-80",9 of 10
CC1Oc2cc3c(-c4c(O)cc(O)c5c(O)c6c(cc45)OC(C)C(C)C6=O)c(O)cc(O)c3c(O)c2C(=O)C1C (stereo unspecified),survivor count,"dose: 5.0 mg/kg/injection, vehicle: suspension in saline",7 of 10 and 10 of 10
same,survivor count,"dose: 10.0 mg/kg/injection, vehicle: suspension in saline",5 of 10 and 10 of 10
same,survivor count,"dose: 20.0 mg/kg/injection, vehicle: suspension in saline",2 of 10
same,survivor count,"dose: 40.0 mg/kg/injection, vehicle: suspension in saline",1 of 10
same,survivor count,"dose: 80.0 mg/kg/injection, vehicle: suspension in saline",0 of 10
NC(=O)c1ccc[n+](Cc2c(Cl)cccc2Cl)c1,survivor count,"dose: 0.75 mg/kg/injection, vehicle: saline",10 of 10
C1OC1CN1CCN(CC2CO2)CC1 (stereo unspecified),T/C,"dose: 8.0 mg/kg/injection, vehicle: saline with Tween-80",125 % of control
same,T/C,"dose: 32.0 mg/kg/injection, vehicle: saline with Tween-80",130 % of control
same,survivor count,"dose: 64.0 mg/kg/injection, vehicle: saline with Tween-80",10 of 10
O=[N+]([O-])c1c(O)c(CNCCCO)cc(CNCCCO)c1O,survivor count,"dose: 25.0 mg/kg/injection, vehicle: saline",9 of 10
same,survivor count,"dose: 50.0 mg/kg/injection, vehicle: saline",10 of 10
same,survivor count,"dose: 100.0 mg/kg/injection, vehicle: saline",5 of 10
same,survivor count,[3],0 of 10
COC1/C=C\C=C(/C)C(=O)NC2=CC(=O)C=C(C2=O)C(OC)C(C)CC(OC)C(OC)C(C)/C=C(/C)C1OC(N)=O (stereo unspecified),T/C,"dose: 0.75 mg/kg/injection, vehicle: Klucel (hydroxypropylcellulose) (HPC)",142 % of control
same,T/C,"dose: 1.5 mg/kg/injection, vehicle: Klucel (hydroxypropylcellulose) (HPC)",132 % of control [9 of 10 alive]
same,T/C,[8],147 % of control [9 of 10 alive]
same,survivor count,[8],8 of 10
same,survivor count,"dose: 6.0 mg/kg/injection, vehicle: Klucel (hydroxypropylcellulose) (HPC)",2 of 10
same,survivor count,"dose: 12.0 mg/kg/injection, vehicle: Klucel (hydroxypropylcellulose) (HPC)",0 of 10
same,survivor count,"dose: 24.0 mg/kg/injection, vehicle: Klucel (hydroxypropylcellulose) (HPC)",0 of 10
